PubChem BioAssay AID1224830, NIAID – 2016
Test: 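Regulators of TLR4 signalling towards TNF-alpha in macrophage-like cells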 (primary screen). System: human THP-1 monocytic leukaemia cells, TNF dual-luciferase reporter clone, PMA-differentiated to macrophage-like cells. Reagents: siRNA pool against human genes, 50 nM. Timing: LPS for 4 h, given about 3 days after siRNA transfection. Conditions: bacterial LPS (TLR4 ligand), 10 ng/ml. Detection: 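Ratio of firefly to renilla light, scaled to the plate median and expressed as a robust z-score per replicate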. Direction: TNF reporter robust z-score: higher = stronger TNF reporter response to LPS. Call rule: 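a well is active when its z-score exceeds 2.8 or falls below -1.5; control wells carry no call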.
Here is a random part of about 18,000 reagents. About 2,900 of all reagents (16%) count as active. 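Calls are made per well; low scores hint the gene aids the LPS response, high scores that it dampens it.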 The numbers tell different reagents against one gene apart. Repeated entries: four replicate wells of each siRNA pool. No sequences are given here.

| gene | pool no. | TNF reporter robust z-score | Outcome |
| --- | --- | --- | --- |
| ARL4A | 1 | -1.27 | inactive |
| ARL4A | 1 | 0.74 | inactive |
| ARL4A | 1 | 0.12 | inactive |
| ARL4A | 1 | -0.24 | inactive |
| TMED2 | 1 | -0.94 | inactive |
| TMED2 | 1 | 0.15 | inactive |
| TMED2 | 1 | -0.6 | inactive |
| TMED2 | 1 | 0.88 | inactive |
| TAS2R40 | 1 | 0.48 | inactive |
| TAS2R40 | 1 | 2.4 | inactive |
| TAS2R40 | 1 | -0.72 | inactive |
| TAS2R40 | 1 | -0.76 | inactive |
| EEFSEC | 1 | -0.54 | inactive |
| EEFSEC | 1 | -0.2 | inactive |
| EEFSEC | 1 | -0.19 | inactive |
| EEFSEC | 1 | -0.67 | inactive |
| ZNF701 | 1 | -0.28 | inactive |
| ZNF701 | 1 | -0.67 | inactive |
| ZNF701 | 1 | -1.06 | inactive |
| ZNF701 | 1 | 0.24 | inactive |
| UCN | 1 | 2.01 | inactive |
| UCN | 1 | 1.86 | inactive |
| UCN | 1 | -0.79 | inactive |
| UCN | 1 | -0.68 | inactive |
| PKD1L3 | 1 | 0.41 | inactive |
| PKD1L3 | 1 | 0.04 | inactive |
| PKD1L3 | 1 | 1.04 | inactive |
| PKD1L3 | 1 | -0.38 | inactive |
| PTF1A | 1 | -0.48 | inactive |
| PTF1A | 1 | -0.57 | inactive |
| PTF1A | 1 | -0.44 | inactive |
| PTF1A | 1 | -0.1 | inactive |
| GYPC | 1 | 3.23 | active |
| GYPC | 1 | 1.09 | inactive |
| GYPC | 1 | 0.06 | inactive |
| GYPC | 1 | 1.05 | inactive |
| CCDC90B | 1 | 0.03 | inactive |
| CCDC90B | 1 | -0.4 | inactive |
| CCDC90B | 1 | -0.08 | inactive |
| CCDC90B | 1 | 0.1 | inactive |
| DOCK8-AS1 | 1 | 0.33 | inactive |
| DOCK8-AS1 | 1 | 0.48 | inactive |
| DOCK8-AS1 | 1 | 0.59 | inactive |
| DOCK8-AS1 | 1 | -0.18 | inactive |
| TNPO3 | 1 | -0.25 | inactive |
| TNPO3 | 1 | -0.65 | inactive |
| TNPO3 | 1 | -0.02 | inactive |
| TNPO3 | 1 | -0.14 | inactive |
| KCTD21 | 1 | -0.66 | inactive |
| KCTD21 | 1 | -0.5 | inactive |
| KCTD21 | 1 | -0.94 | inactive |
| KCTD21 | 1 | -0.4 | inactive |
| MARCHF9 | 1 | 2.6 | inactive |
| MARCHF9 | 1 | -1.33 | inactive |
| MARCHF9 | 1 | 1.03 | inactive |
| MARCHF9 | 1 | 2.58 | inactive |
| C14orf119 | 1 | 0.39 | inactive |
| C14orf119 | 1 | 1.04 | inactive |
| C14orf119 | 1 | 2.19 | inactive |
| C14orf119 | 1 | 0.95 | inactive |

Continued; the last 12 above are carried over.
| gene | pool no. | TNF reporter robust z-score | Outcome |
| --- | --- | --- | --- |
| KCTD21 | 1 | -0.66 | inactive |
| KCTD21 | 1 | -0.5 | inactive |
| KCTD21 | 1 | -0.94 | inactive |
| KCTD21 | 1 | -0.4 | inactive |
| MARCHF9 | 1 | 2.6 | inactive |
| MARCHF9 | 1 | -1.33 | inactive |
| MARCHF9 | 1 | 1.03 | inactive |
| MARCHF9 | 1 | 2.58 | inactive |
| C14orf119 | 1 | 0.39 | inactive |
| C14orf119 | 1 | 1.04 | inactive |
| C14orf119 | 1 | 2.19 | inactive |
| C14orf119 | 1 | 0.95 | inactive |
| EPM2A | 1 | -1.62 | active |
| EPM2A | 1 | 1.02 | inactive |
| EPM2A | 1 | 1.21 | inactive |
| EPM2A | 1 | 1.15 | inactive |
| DENND1C | 1 | -1.5 | inactive |
| DENND1C | 1 | -1.44 | inactive |
| DENND1C | 1 | -1.55 | active |
| DENND1C | 1 | -1.53 | active |
| TGDS | 1 | -0.59 | inactive |
| TGDS | 1 | -0.74 | inactive |
| TGDS | 1 | -0.7 | inactive |
| TGDS | 1 | -0.61 | inactive |
| BNIP5 | 1 | -0.22 | inactive |
| BNIP5 | 1 | 1.89 | inactive |
| BNIP5 | 1 | 0.34 | inactive |
| BNIP5 | 1 | 0.4 | inactive |
| KRTAP5-3 | 1 | -0.14 | inactive |
| KRTAP5-3 | 1 | -0.55 | inactive |
| KRTAP5-3 | 1 | -0.19 | inactive |
| KRTAP5-3 | 1 | -0.21 | inactive |
| MUTYH | 1 | -0.76 | inactive |
| MUTYH | 1 | -0.38 | inactive |
| MUTYH | 1 | -0.72 | inactive |
| MUTYH | 1 | -0.85 | inactive |
| VTA1 | 1 | 0.1 | inactive |
| VTA1 | 1 | 0.37 | inactive |
| VTA1 | 1 | -0.25 | inactive |
| VTA1 | 1 | 0.95 | inactive |
| CIAO3 | 1 | 0.15 | inactive |
| CIAO3 | 1 | -0.72 | inactive |
| CIAO3 | 1 | -0.99 | inactive |
| TRIM64C | 1 | -0.6 | inactive |
| TRIM64C | 1 | 0.16 | inactive |
| TRIM64C | 1 | 0.28 | inactive |
| TRIM64C | 1 | -0.92 | inactive |
| TRIM64C | 2 | 0.84 | inactive |
| TRIM64C | 2 | -0.61 | inactive |
| TRIM64C | 2 | -0.54 | inactive |
| TRIM64C | 2 | -0.1 | inactive |
| GALNT13 | 1 | -0.9 | inactive |
| GALNT13 | 1 | 1.97 | inactive |
| GALNT13 | 1 | -0.88 | inactive |
| GALNT13 | 1 | -0.06 | inactive |
| CS | 1 | -0.31 | inactive |
| CS | 1 | 0.48 | inactive |
| CS | 1 | 0.54 | inactive |
| CS | 1 | -0.25 | inactive |
| INIP | 1 | 3.65 | active |
| INIP | 1 | 3.74 | active |
| INIP | 1 | 3.48 | active |
| INIP | 1 | 1.8 | inactive |
